PubChem BioAssay AID504764 – Drosophila RNAi Screening Center – 2011
The deposit covers about 22,000 reagents; shown is an unselected part of those that have a named target and a result. Of all reagents, 403 (1.9%) are marked active. 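Unnormalised raw counts per well; ratio z-scores behind the hit calls and whether each hit raises or lowers signal are not deposited.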 Unmarked entries are inactive. Not stated in the record: the amount of reagent.

Aim: 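Genes whose knock-down alters Notch-dependent transcription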 (primary screen)
Cells: Drosophila Kc167 cells
Reagent: long dsRNA against Drosophila genes
Timing: about 5 days (4 days dsRNA, then 24 h after transfection)
Conditions: transfection of constitutively active membrane-tethered Notch lacking the extracellular domain, read 24 h later
Read-out: 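Light from a Notch-responsive E(spl)m3 luciferase reporter under active Notch, with control-promoter and no-Notch reporter wells to normalise; raw counts from paired wells a and b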
Direction: induced reporter light, run 1, well a and induced reporter light, run 1, well b: higher = more light from the Notch target reporter with active Notch; control promoter light, run 1, well a and control promoter light, run 1, well b: higher = more light from the viral control promoter (cell number, transfection, viability); uninduced reporter light, run 1, well a: higher = more light from the Notch target reporter without active Notch
Call rule: 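Hit if the duplicate-averaged log2 ratio of induced to control-promoter light gives a plate-wise z beyond ±2, or induced to uninduced beyond ±1.8; weak-control or discordant-duplicate wells dropped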
Meaning of the calls: active = modifier hit (raised or lowered Notch signal); inactive = not a hit

After knock-down of LysP [DRSC08676] the results were induced reporter light, run 1, well a = 1.25e5; induced reporter light, run 1, well b = 1.35e5; control promoter light, run 1, well a = 1.83e5; control promoter light, run 1, well b = 1.48e5; uninduced reporter light, run 1, well a = 6580. After knock-down of Dora [DRSC19614], the screen gave induced reporter light, run 1, well a = 48060; induced reporter light, run 1, well b = 53300; control promoter light, run 1, well a = 43540; control promoter light, run 1, well b = 50380; uninduced reporter light, run 1, well a = 11305. After knock-down of Dora [DRSC19781], the screen gave induced reporter light, run 1, well a = 82855; induced reporter light, run 1, well b = 1.02e5; control promoter light, run 1, well a = 66255; control promoter light, run 1, well b = 80745; uninduced reporter light, run 1, well a = 11020. Dora [DRSC20034] showed induced reporter light, run 1, well a = 75060; induced reporter light, run 1, well b = 92940; control promoter light, run 1, well a = 72555; control promoter light, run 1, well b = 86405; uninduced reporter light, run 1, well a = 10350. Depletion of Dora [DRSC20035] resulted in: induced reporter light, run 1, well a = 21388; induced reporter light, run 1, well b = 23370; control promoter light, run 1, well a = 12665; control promoter light, run 1, well b = 11350; uninduced reporter light, run 1, well a = 7645. For CtIP [DRSC11785], the values are induced reporter light, run 1, well a = 1.11e5; induced reporter light, run 1, well b = 1.09e5; control promoter light, run 1, well a = 1.04e5; control promoter light, run 1, well b = 93840; uninduced reporter light, run 1, well a = 6015.

CG6330 [DRSC16022] gave induced reporter light, run 1, well a = 1.53e5; induced reporter light, run 1, well b = 1.83e5; control promoter light, run 1, well a = 2.42e5; control promoter light, run 1, well b = 2.18e5; uninduced reporter light, run 1, well a = 14320. After knock-down of Hsdl2 [DRSC15839], the record shows induced reporter light, run 1, well a = 2.08e5; induced reporter light, run 1, well b = 1.86e5; control promoter light, run 1, well a = 2.20e5; control promoter light, run 1, well b = 2.57e5; uninduced reporter light, run 1, well a = 14535. After knock-down of Teh4 [DRSC08457], the record shows induced reporter light, run 1, well a = 1.22e5; induced reporter light, run 1, well b = 1.31e5; control promoter light, run 1, well a = 2.44e5; control promoter light, run 1, well b = 1.75e5; uninduced reporter light, run 1, well a = 8470. CG7766 [DRSC18424] showed induced reporter light, run 1, well a = 1.34e5; induced reporter light, run 1, well b = 1.29e5; control promoter light, run 1, well a = 1.42e5; control promoter light, run 1, well b = 1.23e5; uninduced reporter light, run 1, well a = 9632. CG15423 [DRSC00437] showed induced reporter light, run 1, well a = 1.88e5; induced reporter light, run 1, well b = 1.69e5; control promoter light, run 1, well a = 1.81e5; control promoter light, run 1, well b = 1.48e5; uninduced reporter light, run 1, well a = 10750. Against CG6424 [DRSC05936] the deposit lists induced reporter light, run 1, well a = 99380; induced reporter light, run 1, well b = 1.03e5; control promoter light, run 1, well a = 1.77e5; control promoter light, run 1, well b = 2.10e5; uninduced reporter light, run 1, well a = 6955.

Ordered by “induced reporter light, run 1, well b” (high to low): 2 of the entries above
Dora [DRSC19781] — induced reporter light, run 1, well a = 82855; induced reporter light, run 1, well b = 1.02e5; control promoter light, run 1, well a = 66255; control promoter light, run 1, well b = 80745; uninduced reporter light, run 1, well a = 11020
Dora [DRSC19614] — induced reporter light, run 1, well a = 48060; induced reporter light, run 1, well b = 53300; control promoter light, run 1, well a = 43540; control promoter light, run 1, well b = 50380; uninduced reporter light, run 1, well a = 11305
